Experimental data from patent US20120308554A1, “VEGF-D/VEGFR2/3-MEDIATED REGULATION OF DENDRITES” (UNIVERSITAT HEIDELBERG, priority 2011, published 2012).
For at least one compound, name, drawing or mass did not settle the structure.

Assays:
Type in all cases: cell-based, mice
Details in all cases: 2 hrs 50 μM bicuculline
cFos = assay: qRT-PCR analysis of cFos expression in hippocampal neurons
VEGFD = assay: qRT-PCR analysis of VEGFD expression in hippocampal neurons
Method: (§1) Total RNA was isolated at DIV10 to DIV13 from hippocampal primary neuron cultures or isolated brain tissues with Rneasy Mini Kit (Qiagen, Hilden, Germany) including an optional Dnase I treatment at room temperature for 15 min according to manufacturer's instructions (Qiagen). 1.2 μg of extracted RNA was reverse transcribed into first strand cDNA using High Capacity cDNA Reverse Transcription kit (Applied Biosystems, Foster City, Calif.).
(§2) Quantitative reverse transcriptase PCR (qRT-PCR) was done on an ABI7300 thermal cycler using Universal qRT-PCR master mix with TaqMan Gene Expression Assays for the indicated genes (Applied Biosystems). The following TaqMan Gene Expression Assays were used in this study: Gusb (Mm00446953_m1), cFos (Mm00487425_m1), VEGFD (Mm00438965_m1), VEGFC (Mm01202432_m1), VEGF (Mm01281449_m1), VEGFR3 (Mm01292618_m1), beta-actin (Mm00607939_s1), beta-2 microglobulin (Mm00437762_m1), CBP (Mm01342435_m1), p38 MAPK alpha (Mm00442497_m1), p38 MAPK beta (Mm00440955_m1). Expression of target genes was normalized against the expression of Gusb as endogenous control gene. Data were derived from at least 5 independent experiments.

VEGFC = assay: qRT-PCR analysis of VEGFC expression in hippocampal neurons
Method: as §1, §2

CN1CCc2cc3c(cc2[C@H]1[C@@H]1OC(=O)c2c1ccc1c2OCO1)OCO3 [Bicuculline, reference compound]
cFos mRNA (cFos): robust induction of cFos mRNA
VEGFD mRNA levels (VEGFD): did not alter VEGFC or VEGFD mRNA levels
VEGFC mRNA levels (VEGFC): did not alter VEGFC or VEGFD mRNA levels
